Source: paper doi:10.1101/2023.03.13.532326

Biological target: His6-FcrX (S. meliloti) (UniProt Q92JY7)
Assay: affinity purification with mass spectrometry

binding: binds
B1: FtsZ1 (protein, UniProt P30327 1-590)
chain: MAINLQKPDITELKPRITVFGVGGGGGNAVNNMITAGLQGVDFVVANTDAQALTMTKAERIIQMGVAVTEGLGAGSQPEVGRAAAEECIDEIIDHLQGTHMCFVTAGMGGGTGTGAAPIVAQAARNKGILTVGVVTKPFHFEGGRRMRIADQGISDLQKSVDTLIVIPNQNLFRIANDKTTFADAFAMADQVLYSGVACITDLMVKEGLINLDFADVRSVMREMGRAMMGTGEASGEGRAMAAAEAAIANPLLDETSMKGAQGLLISITGGRDLTLFEVDEAATRIREEVDPDANIILGATFDEELEGLIRVSVVATGIDRTAAEVAGRSADFRPVAPKPIVRPSAAVPAQPQPTVSLQPVPQPQPVQQPLQQQNVDHIALAIREAEMERELDIAARAQVAAPAPQPQPHLQEEAFRPQSKLFAGVAPTEAAPVMRPAQPAPRPVEMQAPVQPQMQAQPVQQEPTQVVRQQAEPVRMPKVEDFPPVVKAEMDYRTQPAPAHQEERGPMGLLNRITSSLGLREREATNVSSDMTAAAPSAASQQRRPLSPEASLYAPRRGQLDDHGRAAPQMRSHEDDQLEIPAFLRRQSS

Results are given in words; binding and its absence hold for the method and conditions named. Binding seen in cells or lysates may run through a third protein. A yes stands for co-enrichment or nearness to the bait. Other partners may have been found.
